Experimental data: publication PMC4695110
These are yes or no findings as the source states them, for the method shown. In cells and extracts the contact can be indirect. Some results given as binding are weak or reduced against the parent protein; the word gives no strength.

Protein sequences, listed by entry. Tags and fused reporters are not part of them.
UniProt Q04206: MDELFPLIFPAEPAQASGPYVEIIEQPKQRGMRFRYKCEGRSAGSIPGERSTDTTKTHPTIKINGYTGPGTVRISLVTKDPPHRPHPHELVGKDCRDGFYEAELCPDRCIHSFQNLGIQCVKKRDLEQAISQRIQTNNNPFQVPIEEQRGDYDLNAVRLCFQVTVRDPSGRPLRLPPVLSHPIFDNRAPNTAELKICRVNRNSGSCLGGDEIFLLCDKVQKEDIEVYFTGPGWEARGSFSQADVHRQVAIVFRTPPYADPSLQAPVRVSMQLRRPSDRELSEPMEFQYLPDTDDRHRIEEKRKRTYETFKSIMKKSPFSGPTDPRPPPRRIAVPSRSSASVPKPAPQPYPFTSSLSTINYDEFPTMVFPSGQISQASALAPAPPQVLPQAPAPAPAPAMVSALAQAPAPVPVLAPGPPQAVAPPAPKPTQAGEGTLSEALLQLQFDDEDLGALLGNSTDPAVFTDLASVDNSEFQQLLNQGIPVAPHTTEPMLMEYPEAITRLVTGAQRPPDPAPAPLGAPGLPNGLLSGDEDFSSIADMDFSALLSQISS

T1: c-Rel (human (endogenous in DLBCL cell lines MS, DB, LR, LP)) (UniProt Q04864)
T1 sequence: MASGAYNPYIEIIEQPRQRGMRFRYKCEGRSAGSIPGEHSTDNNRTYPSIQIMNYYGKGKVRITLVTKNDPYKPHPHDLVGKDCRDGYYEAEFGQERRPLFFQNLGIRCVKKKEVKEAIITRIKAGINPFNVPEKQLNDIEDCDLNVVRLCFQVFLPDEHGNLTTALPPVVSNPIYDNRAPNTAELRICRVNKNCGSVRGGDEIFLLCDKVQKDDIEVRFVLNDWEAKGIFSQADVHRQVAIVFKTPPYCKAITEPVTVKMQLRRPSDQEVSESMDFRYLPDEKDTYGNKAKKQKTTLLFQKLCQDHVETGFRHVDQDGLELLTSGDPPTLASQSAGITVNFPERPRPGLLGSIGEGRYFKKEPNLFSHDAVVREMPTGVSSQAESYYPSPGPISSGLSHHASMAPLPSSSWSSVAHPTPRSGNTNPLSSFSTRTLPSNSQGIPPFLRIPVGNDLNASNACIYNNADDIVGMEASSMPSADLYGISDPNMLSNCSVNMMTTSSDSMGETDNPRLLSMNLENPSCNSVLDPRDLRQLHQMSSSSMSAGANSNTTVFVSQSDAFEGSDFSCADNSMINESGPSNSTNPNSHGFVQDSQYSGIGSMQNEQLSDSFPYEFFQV

T2: c-Rel (human (endogenous in DLBCL cell lines MS, DB, LR, LP)), Q04864
T2 chain: T1 sequence

B1: p52 (protein, UniProt Q00653 1-454)
chain: MESCYNPGLDGIIEYDDFKLNSSIVEPKEPAPETADGPYLVIVEQPKQRGFRFRYGCEGPSHGGLPGASSEKGRKTYPTVKICNYEGPAKIEVDLVTHSDPPRAHAHSLVGKQCSELGICAVSVGPKDMTAQFNNLGVLHVTKKNMMGTMIQKLQRQRLRSRPQGLTEAEQRELEQEAKELKKVMDLSIVRLRFSAFLRASDGSFSLPLKPVISQPIHDSKSPGASNLKISRMDKTAGSVRGGDEVYLLCDKVQKDDIEVRFYEDDENGWQAFGDFSPTDVHKQYAIVFRTPPYHKMKIERPVTVFLQLKRKRGGDVSDSKQFTYYPLVEDKEEVQRKRRKALPTFSQPFGGGSHMGGGSGGAAGGYGGAGGGGSLGFFPSSLAYSPYQSGAGPMGCYPGGGGGAQMAATVPSRDSGEEAAEPSAPSRTPQCEPQAPEMLQRAREYNARLFGLA
B2: RelB, Q01201 1-579 (protein)
chain: MLRSGPASGPSVPTGRAMPSRRVARPPAAPELGALGSPDLSSLSLAVSRSTDELEIIDEYIKENGFGLDGGQPGPGEGLPRLVSRGAASLSTVTLGPVAPPATPPPWGCPLGRLVSPAPGPGPQPHLVITEQPKQRGMRFRYECEGRSAGSILGESSTEASKTLPAIELRDCGGLREVEVTACLVWKDWPHRVHPHSLVGKDCTDGICRVRLRPHVSPRHSFNNLGIQCVRKKEIEAAIERKIQLGIDPYNAGSLKNHQEVDMNVVRICFQASYRDQQGQMRRMDPVLSEPVYDKKSTNTSELRICRINKESGPCTGGEELYLLCDKVQKEDISVVFSRASWEGRADFSQADVHRQIAIVFKTPPYEDLEIVEPVTVNVFLQRLTDGVCSEPLPFTYLPRDHDSYGVDKKRKRGMPDVLGELNSSDPHGIESKRRKKKPAILDHFLPNHGSGPFLPPSALLPDPDFFSGTVSLPGLEPPGGPDLLDDGFAYDPTAPTLFTMLDLLPPAPPHASAVVCSGGAGAVVGETPGPEPLTLDSYQAPGPGDGGTASLVGSNMFPNHYREAAFGGGLLSPGPEAT

How the values were obtained:
[1] = biological target: T1, c-Rel (human (endogenous in DLBCL cell lines MS, DB, LR, LP)); experiment: co-IP; nuclear extract of MS and DB (GCB) and LR and LP (ABC) DLBCL cells; precipitated with p65, c-Rel, p52 and RelB antibodies, normal rabbit IgG as negative control; Western blot with p65, c-Rel, p52 and RelB antibodies
[2] = biological target: T2, c-Rel (human (endogenous in DLBCL cell …)); experiment: as above; settings: remark: other sources report otherwise

| Molecule | binding [1] | binding [2] |
| --- | --- | --- |
| p65 (from UniProt Q04206 1-551) | binds | – |
| B1 | binds | – |
| B2 | – | binds |
